No constants are given. Whether binding was seen depends on the method and setting.
Legend:
[1] = target: T1, Plasmodium falciparum Hsp70-Hsp90 organizing protein (PfHop) (Plasmodium falciparum), Q8ILC1; assay: SEC; settings: remark: other sources report otherwise
T1 chain: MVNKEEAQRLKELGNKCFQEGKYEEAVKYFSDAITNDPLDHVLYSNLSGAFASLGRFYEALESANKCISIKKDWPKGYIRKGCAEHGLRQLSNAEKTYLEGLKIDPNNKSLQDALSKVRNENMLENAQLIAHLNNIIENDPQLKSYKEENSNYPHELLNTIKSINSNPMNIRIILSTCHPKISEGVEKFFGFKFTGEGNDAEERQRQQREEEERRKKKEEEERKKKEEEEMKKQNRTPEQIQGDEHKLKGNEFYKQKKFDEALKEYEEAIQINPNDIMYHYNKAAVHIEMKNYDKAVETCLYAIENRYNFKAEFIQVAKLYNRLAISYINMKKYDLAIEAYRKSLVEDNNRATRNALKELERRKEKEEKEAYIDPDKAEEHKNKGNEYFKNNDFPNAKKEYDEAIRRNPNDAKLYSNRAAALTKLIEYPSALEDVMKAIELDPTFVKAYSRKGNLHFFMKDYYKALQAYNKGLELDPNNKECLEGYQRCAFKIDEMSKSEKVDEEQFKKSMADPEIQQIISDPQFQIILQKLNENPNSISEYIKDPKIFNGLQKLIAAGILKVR

[2] = target: T1, Plasmodium falciparum Hsp70-Hsp90 …; assay: SEC-MALS; settings: remark: other sources report otherwise

binding [1]: no binding
binding [2]: no binding (tested: 100 µg injected)
B1: Plasmodium falciparum Hsp70-Hsp90 organizing protein (PfHop), Q8ILC1 1-564 (protein)
chain: T1 chain
